Binding screen against folded nucleic acids

Data from the ROBIN nucleic acid binder screens, doi:10.1002/anie.202211358.

Targets (5′ to 3′):
T1: SAM-II riboswitch RNA pseudoknot, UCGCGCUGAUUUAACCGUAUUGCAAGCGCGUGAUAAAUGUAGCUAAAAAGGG. About 21,000 compounds screened, about 200 hits.
T2: PreQ1 riboswitch RNA pseudoknot, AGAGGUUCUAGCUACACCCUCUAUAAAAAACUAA. From B. subtilis. About 24,000 compounds screened, about 170 hits.
T3: TPP riboswitch RNA three-way junction, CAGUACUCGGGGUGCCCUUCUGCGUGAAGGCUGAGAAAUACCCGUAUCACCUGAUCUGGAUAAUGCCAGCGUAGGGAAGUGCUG. About 24,000 compounds screened, about 160 hits.

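The test is a small-molecule microarray: each compound is printed twice on a reactive slide, and binding shows as fluorescence of the labelled oligonucleotide after washing. For the PreQ1, TPP and SAM-II riboswitches the laboratory earlier reported (doi:10.1038/s41467-019-09493-3) 1 µM RNA, 2 h, and a rule that included a mean Z-score above 3 (spot signal-to-noise against the whole library), a score well above that on a control array, and duplicate spots agreeing (coefficient of variation under 100). The data file gives only the calls; its cut-offs may differ, and compounds hitting several targets are kept. These are primary screening calls, not affinities; a compound without a hit may have attached poorly or may still bind in solution.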 “hit” means called a hit, “no hit” means screened and not called a hit. The compounds are a random part of those screened. A target missing from an entry has no call listed here.

* CNc1c(NS(=O)(=O)c2cc(Cl)ccc2OC)c(=O)oc2ccccc12 : T1: no hit; T2: no hit; T3: no hit
* CN1CCCN(C[C@@H]2CN(C(=O)Cn3cnnc3)C[C@@H]2CO)CC1 : T1: no hit; T2: no hit; T3: no hit
* Cc1ncc(CC(=O)N2C[C@H](N(C)C)C[C@H]2CO)c(=O)[nH]1 : T1: no hit; T2: no hit; T3: no hit
* CC[C@@]1(O)C(=O)OCc2c1cc1n(c2=O)Cc2cc3c(NC(=O)CN)cccc3nc2-1.Cl : T1: no hit; T2: no hit; T3: no hit
* Fc1ccccc1-c1ccc(CNCc2ccccn2)o1 : T2: no hit; T3: no hit
* CC(C)(O)CC[C@@H](O)[C@](C)(O)[C@H]1CC[C@@]2(O)C3=CC(=O)[C@@H]4C[C@@H](O)[C@@H](O)C[C@]4(C)[C@@H]3CC[C@]12C : T1: no hit; T2: no hit; T3: no hit
* Cc1nc2ccc(C(=O)N3CCCN([C@H]4COC[C@@H]4O)CC3)cc2nc1C : T1: no hit; T2: no hit; T3: no hit
* C=CCOc1ccc2c(C)c(CC(C)O)c(=O)oc2c1 (centres unmarked) : T1: no hit; T2: no hit; T3: no hit
* N#CC1=C(N)OC2=C(C1c1ccc(F)cc1)S(=O)(=O)N(Cc1ccccc1)c1ccccc12 (centres unmarked) : T2: no hit; T3: no hit
* CCc1ccc([C@@H]2C[C@H](c3ccc(OC)c(OC)c3)n3nc(N)nc3N2)cc1 : T1: no hit; T2: no hit; T3: no hit
* CC(C)c1nc(CN2CC[C@@H]3[C@@H](CCC(=O)N3CCCN)C2)co1 : T1: no hit; T2: no hit; T3: no hit
* CCOC(=O)c1cnc2c(C)cc(Cl)cc2c1NCc1ccccc1 : T1: no hit; T2: no hit; T3: no hit
* O=C(CN1CCCC(O)C1)N1CCCN(Cc2ccccc2F)CC1 (centres unmarked) : T1: no hit; T2: no hit; T3: no hit
* Cc1c(-c2ccccc2)n(O)[n+]([O-])c1-c1ccccc1 : T1: no hit; T2: no hit; T3: no hit
* CCOC(=O)c1sc2nc(C)nc(Nc3ccccc3OC)c2c1C : T1: no hit; T2: no hit; T3: no hit
* Cc1nnc2c(NCc3ccco3)nc3ccccc3n12 : T2: no hit; T3: no hit
* c1cc(CN2CCOCC2)cc(-c2ccc(CN3CCNCC3)cc2)c1 : T1: no hit; T2: no hit; T3: no hit
* Cc1ccccc1Nc1nc(-c2ccccn2)cs1 : T1: no hit; T2: no hit; T3: no hit
* OCCSc1nnc(COc2ccc(Cl)cc2)n1-c1ccccc1 : T2: no hit; T3: no hit
* CCOC(=O)N1CCN(CC(O)COc2ccccc2C(C)C)CC1 (centres unmarked) : T1: no hit; T2: no hit; T3: no hit
* Cc1nc2nc(S(=O)(=O)N(C)CCO)nn2c(C)c1C : T1: no hit; T2: no hit; T3: no hit

For reference, 2 entries once more:

* O=C(CN1CCCC(O)C1)N1CCCN(Cc2ccccc2F)CC1 (centres unmarked) : T1: no hit; T2: no hit; T3: no hit
* CNc1c(NS(=O)(=O)c2cc(Cl)ccc2OC)c(=O)oc2ccccc12 : T1: no hit; T2: no hit; T3: no hit